Measurements as given in patent publication US20210070876A1.
Changes are numbered by the printed parent chain. These are yes or no findings as the source states them, for the method shown. Some entries that bind do so weakly or less than the wild type. For some of these results: Tags and fused reporters may be left off the sequences shown.

Assays:
[1] = biological target: T1, His-tagged human CD73 ECD (human) (UniProt P21589); assay: SEC-MALS, antibody mixed with CD73-His
T1 sequence: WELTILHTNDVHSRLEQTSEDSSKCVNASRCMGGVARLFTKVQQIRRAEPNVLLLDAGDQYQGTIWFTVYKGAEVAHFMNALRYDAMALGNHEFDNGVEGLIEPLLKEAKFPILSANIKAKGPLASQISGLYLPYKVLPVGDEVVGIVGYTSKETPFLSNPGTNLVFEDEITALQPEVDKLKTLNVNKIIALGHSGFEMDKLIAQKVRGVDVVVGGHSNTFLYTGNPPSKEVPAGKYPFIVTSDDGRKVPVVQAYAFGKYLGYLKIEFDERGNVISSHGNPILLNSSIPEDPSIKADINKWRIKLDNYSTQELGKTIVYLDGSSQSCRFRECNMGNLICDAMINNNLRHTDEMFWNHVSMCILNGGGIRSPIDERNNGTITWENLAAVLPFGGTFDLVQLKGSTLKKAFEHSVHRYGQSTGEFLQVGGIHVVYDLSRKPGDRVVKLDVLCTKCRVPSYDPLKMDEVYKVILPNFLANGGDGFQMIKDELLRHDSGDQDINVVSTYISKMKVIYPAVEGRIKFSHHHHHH

[2] = biological target: T1, His-tagged human CD73 ECD (human); assay: SPR, mAb captured, His-tagged CD73 ECD injected
[3] = biological target: cynomolgus CD73 expressed on cells (cynomolgus monkey (Macaca fascicularis)); assay: flow cytometry on CHO-S cells transiently expressing cynomolgus CD73, AF647 anti-human IgG (H+L) secondary, GeoMean
[4] = biological target: T1, His-tagged human CD73 ECD (human); assay: SEC-MALS (refractive index trace) of antibody mixed with His-tagged CD73 ECD at the ratios shown
[5] = biological target: cynomolgus CD73 expressed on cells (cynomolgus monkey (Macaca fascicularis)); assay: flow cytometry, CHO-S cells transiently expressing cynomolgus CD73

Measured: binding

B1: antibody 21046 (antibody, human IgG1, kappa, L234A L235A, V domains shown)
VH: EVQLVESGGGLVQPGRSLRLSCVASGFTFDDYAMHWVRQAPGKGLEWVSGISWNSGSIGYADSVKGRFTISRDNAKNSLYLQMNSLRAEDTAFYYCAQGGYAILTALEYWGQGTLVTVSS
VL: DIQMTQSPSSLSASVGDRVTITCRASQGISNYLAWFQQKPGKAPKSLIYAASSLQSGVPSKFSGSGSGTDFTLTISSLQPEDFATYYCQQYNSYPLTFGGGTKVEIKR
binds: all assays above

B2: antibody 21163 (antibody, human IgG1, kappa, L234A L235A, V domains shown)
VH: EVQLVESGGGLVQPGGSLRLSCAASGFSFSTYWMNWVRQAPGKGLEWVANIKQDGSEKYYVDSVKGRFTISRDNAKNSLYLQMNSLRAEDTAVYYCARDISSSWFYYYGMDVWGQGTTVTVSS
VL: B1 VL with M4L, S10F, N31S, F36Y, S46L, S53T, K61R, D70E, Y91L, L96P
binds: all assays above
